Here are results for 19 variants from the supplement of paper PMC7125110.

± gives the standard error. Many entries were measured with a wide error.

As usually defined, the kcat is the number of substrate molecules converted per active site and unit of time at saturation. For orientation: KM means the substrate concentration at which the rate is half of its maximum.

To fix the notation:
B1: glmS ribozyme (parent)
chain: AUAAAAGCGCCAGAACUACAGAAAUGUAGUUGACGAGGAGGAGGUUUAUCGAAUUUUCGGCGGAUGCCUCCAAA

In the first series the parent is B1. In words: kcat; higher = faster cleavage; RNA array. To be noted: with glucosamine-6-phosphate. In a few lines:
(§1)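 Glucosamine-6-phosphate in HEPES/KCl/Mg(OAc)2 buffer, at 40 μM to 10 mM, was flowed over barcoded ribozyme variants transcribed in situ by E. coli RNA polymerase on sequenced MiSeq chips. Tracking was through a hybridised Cy3 probe at 37 °C. kobs, kcat and KM came from exponential decay fits and weighted Michaelis–Menten fits of normalised per-tile medians.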
Take AUAAAAGCGCCAUAACUACAGAAAUGUAGUUGACGAGGAGGAGGUUUAUCGAAUUUUCGGCGGAUGCGUCCAAA [G13U C68G]: the kcat was found to be 2.36e-05 ± 6.5e-06 s⁻¹.

AUAAAAGCGCCAAAACUACAGAAAUGUAGUUGACGAGGAGGAGGUUUAUCGACUUUUCGGCGGAUGCCUCCAAA [G13A A53C]: the kcat was 0.000346 ± 0.00034 s⁻¹.

Turning to AUAAAAGCGCCUGAACUACAGAAAUGUAGUUGACGAGGAGGAGGUUUAUCGAAUUUUCGGCGGAUGCCGCCAAA [A12U U69G], the kcat is 0.000139 ± 1.8e-05 s⁻¹.

For AUAAAAGCGCCAUAACUACAGAAAUGUAGUUGACGAGGAGGAGGUUUAUCGAAUUUUCGGCGGAUGUCUUCAAA [G13U C67U C70U], the kcat was found to be 3.79e-05 ± 3e-05 s⁻¹.

Turning to AUAAAAGCGCCAGUACUACAGAAAUGUAGUUGACGAGGAGGGGGUUUAUCGAAUUUUCGGCGGAUGCCUCCAAA [A14U A42G], the kcat was 0.0156 ± 0.0054 s⁻¹.

AUAAAAGCGCCAGGACUACAGAAAUGUAGUUGACGAGGAGAAGGUUUAUCGAAUUUUCGGCGGAUGCCUCCAAA [A14G G41A]: the kcat came out at 0.00214 ± 0.0011 s⁻¹.

With AUAAAAGCGCCAUAGCUACAGAAAUGUAGUUAACGAGGAGGAGGUUUAUCGAAUUUUCGGCGGAUGCCUGCAAA [G13U A15G G32A C70G], the kcat was determined as 9.35e-05 ± 2.2e-06 s⁻¹.

With AUAAAAGCGCCAGCACUACAGAAAUGUAGUUGACGAGGACGAGGUUUAUCGAAUUUUCGGCGGAUGCCUCCAAA [A14C G40C], the kcat worked out at 0.000718 ± 6.3e-05 s⁻¹.

For AUAAAAGCGCCAAAACUACAGAAAUGUAGUUGACGAGGAGGAGGUUUAUCGAAAUUUCGGCGGAUGCCUCCAAA [G13A U54A], the kcat was determined as 0.000832 ± 0.00029 s⁻¹.

With AUAAAAGCGCCAGUACUACAGAAAUGUAGUUGACGAGGAGCAGGUUUAUCGAAUUUUCGGCGGAUGCCUGCAAA [A14U G41C C70G], the kcat was 0.136 ± 0.11 s⁻¹.

Regarding AUAAAAGCGCCUGAACUACAGAAAUGUAGUUGACGAGGAGGAGGUUUAUCGAAUAUUCGGCGGAUGCCUCCAAA [A12U U55A], the kcat was determined as 0.0609 ± 0.031 s⁻¹.

Regarding AUAAAAGCGCCUGAACUACAGAAAUGUAGUUGUCGAGGAGGAGGUUUAUCGAAUUUUCGGCGGAUGCCUCCAAA [A12U A33U], the kcat is 0.000444 ± 0.0001 s⁻¹.

For AUAAAAGCGCCAAAACUACAGAAAUGUAGUUGACGAGGAGGAGGUUUAUCGAAUUUUCGGCGGAUGCCUCAAAA [G13A C71A], the kcat turned out to be 0.00132 ± 0.00098 s⁻¹.

As for AUAAAAGCGCCACAACUACAGAAAUGUAGUUGACGAGGAGGAGGUUUAUCGAAUUUUCAGCGGAUGCCUCCAAA [G13C G59A], the kcat is 1.57e-05 ± 1.5e-05 s⁻¹.

Turning to AUAAAAGCGCCAGGACUACAGAAAUGUAGUUGACGAGGAGGAGGUUUAUCGAAUUUUCGGCGGAUGCUUCCAAA [A14G C68U], the kcat was 0.00837 ± 0.0047 s⁻¹.

As to AUAAAAGCGCCAGGACUACAGAAAUGUAGUUGACGAGGAGGAGGUUUAUCGAAUUUUCGGCGGAUGUCUCCAAA [A14G C67U], the kcat was 0.0205 ± 0.012 s⁻¹.

Regarding AUAAAAGCGCCAGGACUACAGAAAUGUAAUUGACGAGGAGGAGGUUUAUCGAAUUUUCGGCGGAUGCCUCCAAA [A14G G29A], the kcat stood at 0.00517 ± 0.0029 s⁻¹.

Take AUAAAAGCGCCAGUACUACAGAAAUGUAGUUGACGAGGAGGAGGUUUAUCGAAUUUUCGGCGGAUGUGUCCAAA [A14U C67U C68G]: the kcat worked out at 2.91e-05 ± 2.7e-05 s⁻¹.

As for AUAAAAGCGCCAGCACUACAGAAAUGUAGUUCACGAGGAGGAGGUUUAUCGAAUUUUCGGCGGAUGCCUCUAAA [A14C G32C C71U], the kcat amounted to 0.000558 ± 0.00035 s⁻¹.

The next series covers variants of B1. In words: self-cleavage kobs at 640 uM GlcN6P; higher = faster cleavage; RNA array. To be noted: with glucosamine-6-phosphate. In a few lines:
as §1
In the case of AUAAAAGCGCCAUAACUACAGAAAUGUAGUUGACGAGGAGGAGGUUUAUCGAAUUUUCGGCGGAUGCGUCCAAA [G13U C68G], the “self-cleavage kobs at 640 uM GlcN6P” value was determined as 1.87e-05 ± 1.7e-05 s⁻¹.

In the next series the parent is B1. In words: self-cleavage kobs at 2500 uM GlcN6P; higher = faster cleavage; RNA array. Particulars: with glucosamine-6-phosphate. The essentials: as §1
Regarding AUAAAAGCGCCAUAACUACAGAAAUGUAGUUGACGAGGAGGAGGUUUAUCGAAUUUUCGGCGGAUGCGUCCAAA [G13U C68G], the “self-cleavage kobs at 2500 uM GlcN6P” value was 3.01e-05 ± 1.7e-05 s⁻¹.

With AUAAAAGCGCCAAAACUACAGAAAUGUAGUUGACGAGGAGGAGGUUUAUCGAAUUUUCGGCGGAUGCCUCAAAA [G13A C71A], the “self-cleavage kobs at 2500 uM GlcN6P” value turned out to be 4.48e-05 ± 2.8e-05 s⁻¹.

Variants of B1 are the subject of another series. In words: KM; higher = weaker cofactor use; RNA array. To be noted: with glucosamine-6-phosphate. The essentials: as §1
In the case of AUAAAAGCGCCUGAACUACAGAAAUGUAGUUGACGAGGAGGAGGUUUAUCGAAUUUUCGGCGGAUGCCGCCAAA [A12U U69G], the KM is 437 ± 200 µM.

Turning to AUAAAAGCGCCAGUACUACAGAAAUGUAGUUGACGAGGAGGGGGUUUAUCGAAUUUUCGGCGGAUGCCUCCAAA [A14U A42G], the KM turned out to be 2710 ± 1300 µM.

In the case of AUAAAAGCGCCAGGACUACAGAAAUGUAGUUGACGAGGAGAAGGUUUAUCGAAUUUUCGGCGGAUGCCUCCAAA [A14G G41A], the KM is 367 ± 280 µM.

As for AUAAAAGCGCCAUAGCUACAGAAAUGUAGUUAACGAGGAGGAGGUUUAUCGAAUUUUCGGCGGAUGCCUGCAAA [G13U A15G G32A C70G], the KM was determined as 405 ± 40 µM.

With AUAAAAGCGCCAGCACUACAGAAAUGUAGUUGACGAGGACGAGGUUUAUCGAAUUUUCGGCGGAUGCCUCCAAA [A14C G40C], the KM amounted to 3650 ± 530 µM.

Consider AUAAAAGCGCCAAAACUACAGAAAUGUAGUUGACGAGGAGGAGGUUUAUCGAAAUUUCGGCGGAUGCCUCCAAA [G13A U54A], for which the KM was 3140 ± 2000 µM.

For the variant AUAAAAGCGCCAGUACUACAGAAAUGUAGUUGACGAGGAGCAGGUUUAUCGAAUUUUCGGCGGAUGCCUGCAAA [A14U G41C C70G], the KM was 9200 ± 8700 µM.

On to AUAAAAGCGCCUGAACUACAGAAAUGUAGUUGACGAGGAGGAGGUUUAUCGAAUAUUCGGCGGAUGCCUCCAAA [A12U U55A], for which the KM was found to be 1150 ± 690 µM.

As for AUAAAAGCGCCUGAACUACAGAAAUGUAGUUGUCGAGGAGGAGGUUUAUCGAAUUUUCGGCGGAUGCCUCCAAA [A12U A33U], the KM worked out at 3790 ± 1500 µM.

Turning to AUAAAAGCGCCAAAACUACAGAAAUGUAGUUGACGAGGAGGAGGUUUAUCGAAUUUUCGGCGGAUGCCUCAAAA [G13A C71A], the KM was determined as 68400 ± 58000 µM.

AUAAAAGCGCCAGGACUACAGAAAUGUAGUUGACGAGGAGGAGGUUUAUCGAAUUUUCGGCGGAUGCUUCCAAA [A14G C68U]: the KM came to 1840 ± 1300 µM.

For the variant AUAAAAGCGCCAGGACUACAGAAAUGUAGUUGACGAGGAGGAGGUUUAUCGAAUUUUCGGCGGAUGUCUCCAAA [A14G C67U], the KM was found to be 1430 ± 1100 µM.

As to AUAAAAGCGCCAGGACUACAGAAAUGUAAUUGACGAGGAGGAGGUUUAUCGAAUUUUCGGCGGAUGCCUCCAAA [A14G G29A], the KM worked out at 459 ± 380 µM.

With AUAAAAGCGCCAGCACUACAGAAAUGUAGUUCACGAGGAGGAGGUUUAUCGAAUUUUCGGCGGAUGCCUCUAAA [A14C G32C C71U], the KM was determined as 7870 ± 7400 µM.

Variants of B1 are the subject of another series. In words: self-cleavage kobs at 160 uM GlcN6P; higher = faster cleavage; RNA array. Particulars: with glucosamine-6-phosphate. The essentials: as §1
Consider AUAAAAGCGCCAUAGCUACAGAAAUGUAGUUAACGAGGAGGAGGUUUAUCGAAUUUUCGGCGGAUGCCUGCAAA [G13U A15G G32A C70G], for which the “self-cleavage kobs at 160 uM GlcN6P” value was found to be 2.86e-05 ± 1.7e-05 s⁻¹.

AUAAAAGCGCCUGAACUACAGAAAUGUAGUUGUCGAGGAGGAGGUUUAUCGAAUUUUCGGCGGAUGCCUCCAAA [A12U A33U]: the “self-cleavage kobs at 160 uM GlcN6P” value stood at 1.28e-05 ± 1.2e-05 s⁻¹.
